# Test results from PubChem BioAssay (EPA / NIEHS).
# Inconclusive means that the source gave no clear call. Such entries were picked first, then a sample of the others. Where the call is inconclusive, the potency comes from a doubtful curve fit. The source made the active and inactive calls. The calls were made as follows: active = hit-call score of the fitted dose curve at least 0.9, where 1 is the maximum; inconclusive = response in the unintended direction; inactive = score below 0.9.
# Assay: ACEA_ER_AUC_viability: ACEA Biosciences xCELLigence Real-Time Cell Analysis on Estrogen Receptor Agonism for Viability (AID 2283782);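 also: hit means loss of impedance signal meaning reduced cell growth or viability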
# Summary of the method: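 Viability endpoint: reduced impedance area under the curve relative to DMSO, recorded by real-time electrode sensing over ~80 h of continuous exposure. Duplicate plates of T47D in hormone-depleted medium; eight concentrations, 1:4 dilutions, 100 uM maximum.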
Structure (SMILES),AC50,outcome
O=C(C=Cc1ccccc1)OCCCc1ccccc1,active: 60 µM,–
Oc1ccccc1Cc1ccccc1O,inconclusive: 50 µM,–
CNC(=C[N+](=O)[O-])NCCSCc1ccc(CN(C)C)o1,inconclusive: 50 µM,–
Nc1ccc(NCCO)c([N+](=O)[O-])c1,–,inactive
CCC(C)C1CCCCC1=O (stereo not drawn),–,inactive
CCOC(=O)OC(=O)OCC,–,inactive
CNS(=O)(=O)C(F)(F)C(F)(F)C(F)(F)C(F)(F)C(F)(F)C(F)(F)C(F)(F)C(F)(F)F,inconclusive: 104 µM,–
N[C@@H](Cc1cc(I)c(Oc2cc(I)c(O)c(I)c2)c(I)c1)C(=O)O,inconclusive: 0.0132 µM,–
N=C(N)C(F)(F)C(F)(F)C(F)(F)C(F)(F)C(F)(F)C(F)(F)C(F)(F)F,active: 75 µM,–
COC(=O)c1ccc(I)cc1S(=O)(=O)NC(=O)Nc1nc(C)nc(OC)n1,–,inactive
CCCCCC#CC(=O)OC,active: 50 µM,–
O=C(O)C(F)(OC(F)(F)C(F)(OC(F)(F)C(F)(F)C(F)(F)F)C(F)(F)F)C(F)(F)F (stereo not drawn),–,inactive
OCCc1ccccn1,inconclusive: 0.464 µM,–
CCCCCCCCN1CCCC1=O,inconclusive: 50 µM,–
C[Si](C)(C)O[Si](C)(C)O[Si](C)(C)C,inconclusive: 50 µM,–
O=C=NCc1cccc(CN=C=O)c1,–,inactive
CCc1ncc(C)[nH]1,–,inactive
CCCCCOC(=O)CCCCC,inconclusive: 50 µM,–
Cc1ccc(C=O)s1,active: 50 µM,–

Structure (SMILES),AC50,outcome
CN1C(=O)c2ccccc2C1=O,–,inactive
Brc1nc2ccccc2s1,–,inactive
O=C1CCCCCN1,inconclusive: 90.5 µM,–
O=S(=O)(Cl)C(F)(F)C(F)(F)C(F)(F)C(F)(F)C(F)(F)C(F)(F)C(F)(F)C(F)(F)F,–,inactive
Cc1c[nH]c(=O)[nH]c1=O,active: 68.6 µM,–
C=C(C)[C@@H]1CC=C(C)CC1,inconclusive: 4.48 µM,–
CC(C)(CO)[N+](=O)[O-],inconclusive: 50.5 µM,–
CC1=CC[C@@]23C[C@@H]1C(C)(C)[C@@H]2CC[C@H]3C,active: 78.5 µM,–
CN(C)CCOCCN(C)C,–,inactive
C=Cc1cccc(C)c1,–,inactive
CCC(C)(C)C1CCC(OC)CC1 (stereo not drawn),–,inactive
CN1CCC[C@H]1c1cccnc1,inconclusive: 81.8 µM,–
[Na+],inconclusive: 0.00994 µM,–
CCC(C)(C)c1cc(O)c(C(C)(C)CC)cc1O,active: 72.7 µM,–
c1ccc(CN(Cc2ccccc2)Cc2ccccc2)cc1,active: 89 µM,–
CC(c1cc(C(C)(C)C)cc(C(C)(C)C)c1O)c1cc(C(C)(C)C)cc(C(C)(C)C)c1O,–,inactive
CC(CN1c2ccccc2Sc2ccccc21)N(C)C (stereo not drawn),active: 17.2 µM,–
Cc1c(O)cccc1O,inconclusive: 17.8 µM,–
Nc1cc([N+](=O)[O-])ccc1Cl,active: 76.3 µM,–

# Laid out differently: results already given
Structure (SMILES) | AC50 | outcome
CCCCCCCCN1CCCC1=O | inconclusive: 50 µM | –
C[Si](C)(C)O[Si](C)(C)O[Si](C)(C)C | inconclusive: 50 µM | –
O=C=NCc1cccc(CN=C=O)c1 | – | inactive
CCc1ncc(C)[nH]1 | – | inactive
CCCCCOC(=O)CCCCC | inconclusive: 50 µM | –
Cc1ccc(C=O)s1 | active: 50 µM | –
CN1C(=O)c2ccccc2C1=O | – | inactive
Brc1nc2ccccc2s1 | – | inactive
O=C1CCCCCN1 | inconclusive: 90.5 µM | –
O=S(=O)(Cl)C(F)(F)C(F)(F)C(F)(F)C(F)(F)C(F)(F)C(F)(F)C(F)(F)C(F)(F)F | – | inactive
